In paper doi:10.64898/2025.12.12.693940 one finds binding data, which are given here for five molecules.

Protein sequences, listed by entry. Tags and fused reporters are not part of them. Residues count along the entry.
UniProt Q5TGZ0: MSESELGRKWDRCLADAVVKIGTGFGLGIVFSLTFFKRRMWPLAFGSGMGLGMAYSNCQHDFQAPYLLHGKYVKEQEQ
UniProt O95831, residues 102-613: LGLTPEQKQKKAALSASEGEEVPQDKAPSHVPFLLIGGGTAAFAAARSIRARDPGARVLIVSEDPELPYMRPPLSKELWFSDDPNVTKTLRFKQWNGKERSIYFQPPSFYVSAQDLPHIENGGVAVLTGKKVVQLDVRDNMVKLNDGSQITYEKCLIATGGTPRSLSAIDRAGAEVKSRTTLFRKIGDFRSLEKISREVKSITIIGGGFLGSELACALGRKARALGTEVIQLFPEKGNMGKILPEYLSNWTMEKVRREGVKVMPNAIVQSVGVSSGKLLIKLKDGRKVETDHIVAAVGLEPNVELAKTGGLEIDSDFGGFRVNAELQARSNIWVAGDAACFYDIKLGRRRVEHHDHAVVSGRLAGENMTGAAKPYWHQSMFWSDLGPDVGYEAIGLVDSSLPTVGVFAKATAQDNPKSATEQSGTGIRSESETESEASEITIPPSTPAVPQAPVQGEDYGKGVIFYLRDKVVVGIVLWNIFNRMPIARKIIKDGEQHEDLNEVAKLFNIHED

Where two headings read alike, the source gives them in different places. These are yes or no findings as the source states them, for the method shown. Binding seen in cells or lysates may run through a third protein. Some binding calls cover weakened binding; strength is not graded here. For some of these results: Tags and fused reporters may be left off the sequences shown.

Holding throughout (assay): co-IP
The target of assay [1] is T1, CCDC127-HA (human) (UniProt Q96BQ5).
T1 sequence: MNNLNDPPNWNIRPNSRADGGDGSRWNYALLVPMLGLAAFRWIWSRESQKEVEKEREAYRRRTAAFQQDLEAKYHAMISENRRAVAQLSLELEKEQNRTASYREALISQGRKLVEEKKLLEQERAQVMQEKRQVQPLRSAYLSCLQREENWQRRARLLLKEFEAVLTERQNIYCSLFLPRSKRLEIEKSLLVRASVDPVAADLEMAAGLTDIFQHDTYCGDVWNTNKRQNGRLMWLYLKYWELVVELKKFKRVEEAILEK

The target in another assay is T2, MIA40-Strep (human) (UniProt Q8N4Q1).
T2 sequence: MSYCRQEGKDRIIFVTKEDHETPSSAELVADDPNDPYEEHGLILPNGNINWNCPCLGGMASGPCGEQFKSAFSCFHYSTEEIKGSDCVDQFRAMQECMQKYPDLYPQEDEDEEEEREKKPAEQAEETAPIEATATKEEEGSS

Assay [2] concerns the target T1, CCDC127-HA (human). The source holds these as a separate data set.
The next assay has as its target MIC10-FLAG (UniProt Q5TGZ0).

Regarding FAM136A (from UniProt Q96C01 1-138), the binding entry with CCDC127-HA (human) [1] is “no binding”.

In the case of AIFM1 (from UniProt O95831 102-613), the binding entry with CCDC127-HA (human) [1] and with MIA40-Strep (human) was “binds” in each case.

B1: CPOX (protein, UniProt P36551 111-454)
chain: TSLGRPEEEEDELAHRCSSFMAPPVTDLGELRRRPGDMKTKMELLILETQAQVCQALAQVDGGANFSVDRWERKEGGGGISCVLQDGCVFEKAGVSISVVHGNLSEEAAKQMRSRGKVLKTKDGKLPFCAMGVSSVIHPKNPHAPTIHFNYRYFEVEEADGNKQWWFGGGCDLTPTYLNQEDAVHFHRTLKEACDQHGPDLYPKFKKWCDDYFFIAHRGERRGIGGIFFDDLDSPSKEEVFRFVQSCARAVVPSYIPLVKKHCDDSFTPQEKLWQQLRRGRYVEFNLLYDRGTKFGLFTPGSRIESILMSLPLTARWEYMHSPSENSKEAEILEVLRHPRDWVR
For the molecule B1, the binding entry in the assay with CCDC127-HA (human) [2], with CCDC127-HA (human) [1] and in the assay with MIA40-Strep (human) was “no binding” throughout.

B2: MIA40 (endogenous) (protein, UniProt Q8N4Q1 1-142)
chain: T2 sequence
With B2, the binding entry in the assay with CCDC127-HA (human) [2] and in the assay with CCDC127-HA (human) [1] was “binds” in each case.

B3: CCDC127 (endogenous) (protein, UniProt Q96BQ5 1-260)
chain: T1 sequence
For B3, the binding entry in the assay with MIA40-Strep (human) and with MIC10-FLAG was “binds” throughout.
